Reference: patent US20120207760A1
These are yes or no findings as the source states them, for the method shown. Some binding calls cover weakened binding; strength is not graded here.

Amino acid sequences for entries named in this document (tags omitted).
UniProt P06821: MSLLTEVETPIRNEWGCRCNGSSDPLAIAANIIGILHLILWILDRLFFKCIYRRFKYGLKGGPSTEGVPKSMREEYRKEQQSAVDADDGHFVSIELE

Key:
[1] = biological target: M2 protein of A/Puerto Rico/8/34 (H1N1), on virus particles, infected MDCK cells or transfected cells (influenza A virus A/Puerto Rico/8/34 (H1N1)) (UniProt P06821); assay: binding to MDCK cells infected with PR8 virus (FIG. 10)
[2] = biological target: M2 protein of A/Puerto Rico/8/34 (H1N1), on virus particles, infected MDCK cells or transfected cells (influenza A virus A/Puerto Rico/8/34 (H1N1)) (UniProt P06821); assay: ELISA on influenza virus, crude supernatant (FIG. 9)
[3] = biological target: M2 protein of A/Puerto Rico/8/34 (H1N1), on virus particles, infected MDCK cells or transfected cells (influenza A virus A/Puerto Rico/8/34 (H1N1)) (UniProt P06821); assay: FMAT on MDCK cells infected with A/PR/8/32, crude supernatant (FIG. 10)
[4] = biological target: M2 protein of A/Puerto Rico/8/34 (H1N1), on virus particles, infected MDCK cells or transfected cells (influenza A virus A/Puerto Rico/8/34 (H1N1)) (UniProt P06821); assay: ELISA on PR8 virus, crude supernatant

Measured: binding

B1: 21B15 (antibody, V domains shown)
VH: QVQLQESGPGLVKPSETLSLTCTVSGSSISNYYWSWIRQSPGKGLEWIGFIYYGGNTKYNPSLKSRVTISQDTSKSQVSLTMSSVTAAESAVYFCARASCSGGYCILDYWGQGTLVTVSS
VL: DIQVTQSPSSLSASVGDRVTITCRASQNIYKYLNWYQQRPGKAPKGLISAASGLQSGVPSRFSGSGSGTDFTLTITSLQPEDFATYYCQQSYSPPLTFGGGTRVDIK
binds: all assays above
